Results on one substance are retold here after article doi:10.1101/2022.05.06.490478 (bioRxiv, 2022).

These are yes or no findings as the source states them, for the method shown. Binding seen in cells or lysates may run through a third protein. A yes stands for co-enrichment or nearness to the bait. Other partners may have been found. Where a sequence is shown, tags or fusion partners need not be part of it.

The target of this assay is T1, C. elegans TMC-1 with C-terminal 3C site-mVenus-3xFLAG (tmc-1::mVenus knock-in) (C. elegans) (UniProt D3KZG3).
T1 sequence: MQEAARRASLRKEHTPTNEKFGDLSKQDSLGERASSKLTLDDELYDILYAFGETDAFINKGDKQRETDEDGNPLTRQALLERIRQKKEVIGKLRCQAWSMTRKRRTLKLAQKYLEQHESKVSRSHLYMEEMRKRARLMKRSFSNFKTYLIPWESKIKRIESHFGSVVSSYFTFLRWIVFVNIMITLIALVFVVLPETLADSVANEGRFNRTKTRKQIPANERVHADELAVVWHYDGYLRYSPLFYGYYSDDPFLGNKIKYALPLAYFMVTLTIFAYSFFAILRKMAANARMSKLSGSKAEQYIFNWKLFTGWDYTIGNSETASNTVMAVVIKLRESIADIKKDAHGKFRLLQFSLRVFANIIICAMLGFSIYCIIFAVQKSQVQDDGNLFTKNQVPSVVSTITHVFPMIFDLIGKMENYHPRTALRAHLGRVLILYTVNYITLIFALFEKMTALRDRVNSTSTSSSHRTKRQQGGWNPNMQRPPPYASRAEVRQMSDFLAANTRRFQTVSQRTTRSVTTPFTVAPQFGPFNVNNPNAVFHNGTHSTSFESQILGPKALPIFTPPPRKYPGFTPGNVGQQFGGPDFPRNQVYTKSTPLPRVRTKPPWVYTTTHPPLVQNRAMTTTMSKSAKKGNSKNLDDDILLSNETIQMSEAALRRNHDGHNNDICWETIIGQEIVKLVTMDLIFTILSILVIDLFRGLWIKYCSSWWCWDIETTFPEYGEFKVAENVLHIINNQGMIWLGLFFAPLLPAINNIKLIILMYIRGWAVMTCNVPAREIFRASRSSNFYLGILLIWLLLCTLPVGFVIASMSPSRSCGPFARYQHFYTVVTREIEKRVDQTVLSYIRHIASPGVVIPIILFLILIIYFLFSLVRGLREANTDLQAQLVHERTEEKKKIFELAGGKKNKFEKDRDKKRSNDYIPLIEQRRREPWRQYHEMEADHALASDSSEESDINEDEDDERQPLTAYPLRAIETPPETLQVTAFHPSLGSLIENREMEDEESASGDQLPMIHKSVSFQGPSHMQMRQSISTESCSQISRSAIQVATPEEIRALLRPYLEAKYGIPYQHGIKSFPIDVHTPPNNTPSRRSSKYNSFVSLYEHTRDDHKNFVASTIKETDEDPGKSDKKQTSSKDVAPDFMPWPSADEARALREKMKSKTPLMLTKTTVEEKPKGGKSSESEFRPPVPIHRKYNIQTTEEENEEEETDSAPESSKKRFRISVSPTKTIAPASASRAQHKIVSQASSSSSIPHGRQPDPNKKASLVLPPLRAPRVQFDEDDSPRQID
Briefly: affinity purification with mass spectrometry.

Regarding “ARRestin domain protein ARRD-6 of C. elegans”, the binding result was “binds”.
